Assay results as given in article PMC5552852, “Structural basis for Ccd1 auto-inhibition in the Wnt pathway through homomerization of the DIX domain” (Scientific Reports, 2017).
Results are given in words; binding and its absence hold for the method and conditions named. Some binding calls cover weakened binding; strength is not graded here. For part of these data: Where a sequence is shown, tags or fusion partners need not be part of it.

Assays:
MBP-fused zCcd1 DIX = biological target: T1, MBP-fused zCcd1 DIX (zebrafish, UniProt Q804T6 356-438); assay: pull-down; MBP-fused mCcd1, zCcd1 or Dvl1 DIX (0.8 mM) held on amylose resin, Axin DIX or Dvl1 DIX free; pull-down buffer, 277 K (Figures 5f, 5g); both purified
T1 construct: DIX domain of zebrafish Ccd1, cDNA Gene ID 360137; The uncleaved precursor of m2; also called MBP-fused zCcd1 DIX domain; source: E. coli (plasmid pOPINM), purified (amylose resin)
T1 sequence (looked up): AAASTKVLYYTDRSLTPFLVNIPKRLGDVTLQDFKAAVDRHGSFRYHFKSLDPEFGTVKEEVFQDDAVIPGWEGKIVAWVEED

Dvl1 DIX domain = Dvl1 DIX domain (UniProt P51141); assay: dynamic light scattering; Zetasizer Nano, 293 K, DIX domains at 100 uM, alone or mixed at a 1:1 molar ratio; both purified
Axin DIX domain = Axin DIX domain (UniProt O70239); assay: as above

| Binder | binding (MBP-fused zCcd1 DIX) | binding (Dvl1 DIX domain) | binding (Axin DIX domain) |
| --- | --- | --- | --- |
| Dvl1 DIX domain (domain or fragment, UniProt P51141 1-85) MAETKIIYHMDEEETPYLVKLPVAPERVTLADFKNVLSNRPVHAYKFFFKSMDQDFGVVKEEIFDDNAKLPCFNGRVVSWLVLAE | binds | binds | – |
| Axin DIX domain (domain or fragment, UniProt O70239 745-827, looked up, DIX domain of Axin; source: E. coli, expressed as a fusion construct with GST or MBP, purified) CDSIVVAYYFCGEPIPYRTLVRGRAVTLGQFKELLTKKGSYRYYFKKVSDEFDCGVVFEEVREDEAILPVFEEKIIGKVEKVD | – | – | binds |
